The list shows a part of the results.
compound: C1CN(CCC1(CC2=CC=C(C=C2)Cl)N)C3=NC=NC4=C3C=CN4; assay: log2 fold change, soluble protein after heating vs DMSO (PISA); higher = thermal stabilisation; K562 lysate, 10 uM; active = over 0.2 and 3.5 SD of the protein, either way, in both replicates (recomputed)
How it was run: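 Pellets of K562 cells were dounce-homogenised in PBS pH 7.4 with 1 mM MgCl2, and the crude extract was held at 1 mg/mL protein for a 30 min treatment with 10 μM compound. Aliquots were heated for 3 min over 48°C-58°C and pooled before NP-40 was added to 0.5% at 4°C. The supernatant from 21,000xg for 90 min was quantified by TMTpro 16plex LC-MS/MS with channel sums equalised. Values are reported from duplicates as log-two fold change in thermal stability relative to solvent controls.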

The chains behind the UniProt entries cited, without tags or fusion partners. Where a name states a change or a piece, a line headed by the entry shows the natural chain unless it says otherwise.
UniProt P33991: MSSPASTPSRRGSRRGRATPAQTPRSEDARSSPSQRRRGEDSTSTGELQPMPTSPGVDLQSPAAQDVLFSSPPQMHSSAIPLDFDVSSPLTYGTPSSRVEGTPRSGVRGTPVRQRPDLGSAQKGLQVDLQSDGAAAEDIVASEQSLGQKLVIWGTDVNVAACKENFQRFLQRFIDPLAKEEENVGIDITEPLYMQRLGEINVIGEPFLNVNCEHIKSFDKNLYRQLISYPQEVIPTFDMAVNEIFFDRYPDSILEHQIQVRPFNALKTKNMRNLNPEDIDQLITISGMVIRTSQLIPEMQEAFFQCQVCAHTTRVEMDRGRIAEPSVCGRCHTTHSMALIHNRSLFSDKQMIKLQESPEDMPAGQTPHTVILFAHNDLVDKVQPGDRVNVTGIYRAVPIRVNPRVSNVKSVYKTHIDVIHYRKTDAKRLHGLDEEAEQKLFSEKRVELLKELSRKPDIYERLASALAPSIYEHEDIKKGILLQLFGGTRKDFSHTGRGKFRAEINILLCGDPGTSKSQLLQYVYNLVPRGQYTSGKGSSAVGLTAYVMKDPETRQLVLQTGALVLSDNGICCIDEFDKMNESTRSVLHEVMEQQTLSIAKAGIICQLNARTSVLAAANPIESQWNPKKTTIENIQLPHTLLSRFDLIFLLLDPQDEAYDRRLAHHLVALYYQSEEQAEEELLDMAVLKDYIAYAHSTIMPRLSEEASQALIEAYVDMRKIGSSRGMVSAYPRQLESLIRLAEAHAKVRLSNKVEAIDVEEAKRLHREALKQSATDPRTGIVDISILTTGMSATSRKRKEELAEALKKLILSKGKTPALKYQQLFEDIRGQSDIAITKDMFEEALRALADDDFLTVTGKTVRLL
UniProt Q8IWA4: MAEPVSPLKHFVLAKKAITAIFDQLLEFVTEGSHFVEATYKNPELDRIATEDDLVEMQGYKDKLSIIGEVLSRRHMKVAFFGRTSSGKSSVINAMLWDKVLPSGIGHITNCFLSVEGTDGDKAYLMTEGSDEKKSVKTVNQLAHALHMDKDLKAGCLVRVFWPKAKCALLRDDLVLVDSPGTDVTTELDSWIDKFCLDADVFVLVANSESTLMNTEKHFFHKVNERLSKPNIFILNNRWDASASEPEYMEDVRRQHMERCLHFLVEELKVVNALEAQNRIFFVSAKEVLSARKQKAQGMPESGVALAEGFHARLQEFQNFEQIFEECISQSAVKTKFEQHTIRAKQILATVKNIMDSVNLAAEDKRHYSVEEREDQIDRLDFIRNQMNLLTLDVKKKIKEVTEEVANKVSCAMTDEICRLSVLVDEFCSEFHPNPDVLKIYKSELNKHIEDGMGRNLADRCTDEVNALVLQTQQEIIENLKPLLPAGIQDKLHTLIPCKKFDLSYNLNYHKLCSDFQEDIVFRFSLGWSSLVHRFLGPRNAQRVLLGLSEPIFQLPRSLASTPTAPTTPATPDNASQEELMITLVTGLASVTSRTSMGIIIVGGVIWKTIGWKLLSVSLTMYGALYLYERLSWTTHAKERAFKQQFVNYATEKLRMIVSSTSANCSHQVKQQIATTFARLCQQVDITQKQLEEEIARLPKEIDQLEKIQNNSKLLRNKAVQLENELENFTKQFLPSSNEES
UniProt Q71F56: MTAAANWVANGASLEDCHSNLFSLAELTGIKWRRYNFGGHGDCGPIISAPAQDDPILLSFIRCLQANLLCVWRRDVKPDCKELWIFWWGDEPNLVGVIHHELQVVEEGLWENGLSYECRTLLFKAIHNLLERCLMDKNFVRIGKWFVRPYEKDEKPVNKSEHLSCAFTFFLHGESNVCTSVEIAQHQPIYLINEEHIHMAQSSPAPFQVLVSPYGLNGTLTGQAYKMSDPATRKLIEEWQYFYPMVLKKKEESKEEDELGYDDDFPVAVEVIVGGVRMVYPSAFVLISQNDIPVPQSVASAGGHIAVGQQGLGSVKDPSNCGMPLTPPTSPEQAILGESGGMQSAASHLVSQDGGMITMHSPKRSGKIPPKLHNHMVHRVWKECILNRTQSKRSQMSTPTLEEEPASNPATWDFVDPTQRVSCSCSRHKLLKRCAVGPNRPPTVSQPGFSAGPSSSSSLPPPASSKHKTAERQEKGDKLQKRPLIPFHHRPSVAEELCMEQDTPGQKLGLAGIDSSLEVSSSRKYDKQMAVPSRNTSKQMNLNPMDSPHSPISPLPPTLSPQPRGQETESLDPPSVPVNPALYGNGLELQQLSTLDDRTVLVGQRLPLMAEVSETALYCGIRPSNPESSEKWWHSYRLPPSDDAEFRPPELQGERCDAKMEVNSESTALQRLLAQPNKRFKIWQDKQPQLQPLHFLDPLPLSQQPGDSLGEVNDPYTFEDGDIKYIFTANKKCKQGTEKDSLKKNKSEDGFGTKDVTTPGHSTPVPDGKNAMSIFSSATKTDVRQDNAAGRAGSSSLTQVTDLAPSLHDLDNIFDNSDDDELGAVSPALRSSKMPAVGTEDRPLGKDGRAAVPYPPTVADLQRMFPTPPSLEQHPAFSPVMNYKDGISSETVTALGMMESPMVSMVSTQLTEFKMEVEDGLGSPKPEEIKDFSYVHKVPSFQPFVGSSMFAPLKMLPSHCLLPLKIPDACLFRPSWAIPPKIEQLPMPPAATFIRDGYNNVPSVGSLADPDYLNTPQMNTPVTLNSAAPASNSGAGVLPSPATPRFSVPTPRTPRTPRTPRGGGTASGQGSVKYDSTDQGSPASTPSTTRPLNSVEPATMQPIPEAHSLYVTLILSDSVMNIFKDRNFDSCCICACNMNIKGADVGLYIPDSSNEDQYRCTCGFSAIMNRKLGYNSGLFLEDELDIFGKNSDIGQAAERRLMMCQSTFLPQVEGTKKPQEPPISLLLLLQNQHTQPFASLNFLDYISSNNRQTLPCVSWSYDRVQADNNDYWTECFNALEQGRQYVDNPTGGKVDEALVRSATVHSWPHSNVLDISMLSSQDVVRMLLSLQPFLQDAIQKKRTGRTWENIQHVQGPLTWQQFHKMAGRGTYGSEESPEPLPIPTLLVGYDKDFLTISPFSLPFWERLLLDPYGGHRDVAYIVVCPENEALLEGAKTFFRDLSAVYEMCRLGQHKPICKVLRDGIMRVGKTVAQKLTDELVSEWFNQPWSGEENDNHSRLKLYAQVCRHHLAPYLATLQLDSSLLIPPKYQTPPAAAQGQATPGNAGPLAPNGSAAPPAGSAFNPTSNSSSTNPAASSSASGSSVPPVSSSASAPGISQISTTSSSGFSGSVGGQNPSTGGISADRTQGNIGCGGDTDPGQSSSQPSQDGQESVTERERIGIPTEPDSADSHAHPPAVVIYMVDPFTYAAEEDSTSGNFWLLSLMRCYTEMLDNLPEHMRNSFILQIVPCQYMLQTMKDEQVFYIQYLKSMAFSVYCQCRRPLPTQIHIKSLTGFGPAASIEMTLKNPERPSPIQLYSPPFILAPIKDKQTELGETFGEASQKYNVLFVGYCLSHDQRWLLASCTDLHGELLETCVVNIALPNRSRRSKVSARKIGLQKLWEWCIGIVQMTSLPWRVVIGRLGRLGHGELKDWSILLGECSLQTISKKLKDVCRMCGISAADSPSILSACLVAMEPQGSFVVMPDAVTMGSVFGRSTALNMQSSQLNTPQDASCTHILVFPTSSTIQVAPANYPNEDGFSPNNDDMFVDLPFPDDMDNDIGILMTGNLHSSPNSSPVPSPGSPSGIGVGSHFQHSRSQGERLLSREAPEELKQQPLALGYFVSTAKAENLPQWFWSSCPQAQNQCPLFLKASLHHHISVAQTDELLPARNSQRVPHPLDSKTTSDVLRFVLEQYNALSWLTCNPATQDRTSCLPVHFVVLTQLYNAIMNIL
UniProt Q93074, whole entry, looked up: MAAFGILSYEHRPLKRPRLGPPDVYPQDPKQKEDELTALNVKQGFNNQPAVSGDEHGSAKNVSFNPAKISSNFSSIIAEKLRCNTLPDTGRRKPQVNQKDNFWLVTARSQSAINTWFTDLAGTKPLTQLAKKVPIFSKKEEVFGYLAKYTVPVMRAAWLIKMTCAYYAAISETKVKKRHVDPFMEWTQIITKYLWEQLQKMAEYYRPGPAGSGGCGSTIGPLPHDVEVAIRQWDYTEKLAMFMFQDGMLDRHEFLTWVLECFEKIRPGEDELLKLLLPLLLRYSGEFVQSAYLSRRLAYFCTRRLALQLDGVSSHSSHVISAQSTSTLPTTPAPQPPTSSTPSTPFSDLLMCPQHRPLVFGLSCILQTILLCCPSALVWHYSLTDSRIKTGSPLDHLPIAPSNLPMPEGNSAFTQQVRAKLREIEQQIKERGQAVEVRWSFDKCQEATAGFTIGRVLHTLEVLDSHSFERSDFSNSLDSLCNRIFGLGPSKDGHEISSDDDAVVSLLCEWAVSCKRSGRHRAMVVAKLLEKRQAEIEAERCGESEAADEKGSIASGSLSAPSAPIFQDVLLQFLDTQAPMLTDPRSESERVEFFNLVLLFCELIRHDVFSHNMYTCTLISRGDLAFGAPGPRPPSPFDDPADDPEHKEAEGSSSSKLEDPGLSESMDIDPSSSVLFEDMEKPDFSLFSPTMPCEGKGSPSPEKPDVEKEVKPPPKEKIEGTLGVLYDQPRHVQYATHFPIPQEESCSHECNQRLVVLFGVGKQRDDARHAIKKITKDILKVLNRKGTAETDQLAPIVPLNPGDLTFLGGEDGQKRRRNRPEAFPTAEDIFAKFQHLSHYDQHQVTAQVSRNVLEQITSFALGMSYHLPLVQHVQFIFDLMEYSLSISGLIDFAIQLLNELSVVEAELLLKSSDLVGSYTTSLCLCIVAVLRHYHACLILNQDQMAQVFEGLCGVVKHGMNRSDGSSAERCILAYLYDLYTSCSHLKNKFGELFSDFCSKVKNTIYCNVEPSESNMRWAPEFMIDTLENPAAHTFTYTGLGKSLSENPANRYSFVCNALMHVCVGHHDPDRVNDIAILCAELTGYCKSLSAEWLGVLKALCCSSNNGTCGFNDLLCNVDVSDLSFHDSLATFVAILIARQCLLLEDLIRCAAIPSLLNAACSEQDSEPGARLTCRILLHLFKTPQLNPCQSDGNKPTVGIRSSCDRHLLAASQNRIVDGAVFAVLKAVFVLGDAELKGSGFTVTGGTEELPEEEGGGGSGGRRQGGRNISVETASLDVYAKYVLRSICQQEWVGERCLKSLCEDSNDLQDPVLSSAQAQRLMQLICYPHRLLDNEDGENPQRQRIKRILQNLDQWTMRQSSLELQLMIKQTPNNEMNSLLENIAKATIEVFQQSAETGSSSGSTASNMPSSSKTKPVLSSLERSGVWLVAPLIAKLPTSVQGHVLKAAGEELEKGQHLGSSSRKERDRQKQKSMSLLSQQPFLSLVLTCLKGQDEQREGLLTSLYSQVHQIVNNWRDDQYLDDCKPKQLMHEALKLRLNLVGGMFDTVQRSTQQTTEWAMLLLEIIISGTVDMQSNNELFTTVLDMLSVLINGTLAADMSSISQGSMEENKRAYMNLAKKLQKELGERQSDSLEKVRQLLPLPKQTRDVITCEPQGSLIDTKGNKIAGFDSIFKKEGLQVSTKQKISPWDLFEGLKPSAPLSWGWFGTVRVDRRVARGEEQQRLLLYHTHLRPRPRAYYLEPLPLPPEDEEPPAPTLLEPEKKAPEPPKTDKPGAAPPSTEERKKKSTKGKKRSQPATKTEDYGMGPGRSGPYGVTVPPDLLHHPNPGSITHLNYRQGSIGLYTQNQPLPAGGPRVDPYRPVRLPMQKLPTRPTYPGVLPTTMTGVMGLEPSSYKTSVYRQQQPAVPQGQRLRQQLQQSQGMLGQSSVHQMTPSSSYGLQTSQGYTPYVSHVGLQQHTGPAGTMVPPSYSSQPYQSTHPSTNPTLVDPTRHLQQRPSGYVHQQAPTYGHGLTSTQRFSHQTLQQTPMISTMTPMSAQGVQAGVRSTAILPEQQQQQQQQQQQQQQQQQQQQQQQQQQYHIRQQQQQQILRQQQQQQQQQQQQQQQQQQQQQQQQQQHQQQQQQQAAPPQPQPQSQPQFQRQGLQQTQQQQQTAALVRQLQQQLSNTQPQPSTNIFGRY
UniProt P50579: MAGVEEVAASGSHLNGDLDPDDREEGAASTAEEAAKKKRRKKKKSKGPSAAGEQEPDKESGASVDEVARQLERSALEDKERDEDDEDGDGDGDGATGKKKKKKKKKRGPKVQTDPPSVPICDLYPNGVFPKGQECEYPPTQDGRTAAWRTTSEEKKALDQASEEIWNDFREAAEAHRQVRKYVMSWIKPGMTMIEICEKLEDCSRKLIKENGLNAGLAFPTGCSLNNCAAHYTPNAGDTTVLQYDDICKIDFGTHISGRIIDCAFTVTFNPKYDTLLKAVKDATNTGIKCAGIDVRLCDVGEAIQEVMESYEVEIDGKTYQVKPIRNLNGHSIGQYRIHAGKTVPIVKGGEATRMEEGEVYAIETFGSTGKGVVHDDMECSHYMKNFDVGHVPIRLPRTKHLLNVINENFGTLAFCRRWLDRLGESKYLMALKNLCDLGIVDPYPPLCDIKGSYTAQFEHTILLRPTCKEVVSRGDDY

log2 fold change, inactive:
METTL16 (UniProt Q86W50) -0.019
MEX3D isoform 3 (UniProt Q86XN8) 0.056
MED4 (UniProt Q9NPJ6) 0.006
MEF2C isoform 5 (UniProt Q06413) -0.085
MED22 isoform 2 (UniProt Q15528) 0.099
MFSD10 (UniProt Q14728) 0.017
MDH1 isoform 3 (UniProt P40925) 0.014
MCM4 (UniProt P33991) -0.005
METTL2A (UniProt Q96IZ6) 0.166
MED8 isoform 2 (UniProt Q96G25) 0.088
MCFD2 (UniProt Q8NI22) 0.075
MESD (UniProt Q14696) -0.001
METTL7A (UniProt Q9H8H3) 0.06
MED20 (UniProt Q9H944) -0.067
MEF2D (UniProt Q14814) 0.012
MCU (UniProt Q8NE86) 0.015
MAZ isoform 2 (UniProt P56270) -0.052
MBOAT2 (UniProt Q6ZWT7) -0.011
MDN1 (UniProt Q9NU22) 0.011
MFN2 (UniProt O95140) 0.027
MED14 (UniProt O60244) -0.042
MFGE8 (UniProt Q08431) 0.017
ME1 (UniProt P48163) -0.015
MFN1 (UniProt Q8IWA4) 0.017
METAP1 (UniProt P53582) 0.026
MED13L (UniProt Q71F56) 0.013
MCM5 (UniProt P33992) -0.002
MED15 (UniProt Q96RN5) 0
MED7 (UniProt O43513) 0.004
MED12 isoform 2 (UniProt Q93074) 0.011
METAP2 (UniProt P50579) -0.014
MBNL1 (UniProt C9JP00) 0.016
MED13 (UniProt Q9UHV7) 0.018
MED26 (UniProt O95402) -0.162
MED1 (UniProt Q15648) -0.001
MED17 (UniProt Q9NVC6) -0.03
MED30 (UniProt Q96HR3) 0.007
MFSD1 isoform 6 (UniProt Q9H3U5) -0.066

Quoted at random: 3 records from the list, in no set order.
log2 fold change, inactive:
MED15 (UniProt Q96RN5) 0
MCFD2 (UniProt Q8NI22) 0.075
MED1 (UniProt Q15648) -0.001

From the supplement of paper PMC10849652
